These are yes or no findings as the source states them, for the method shown. For some assays here: Binding seen in cells or lysates may run through a third protein. Some results given as binding are weak or reduced against the parent protein; the word gives no strength.

Protein sequences, listed by entry. Tags and fused reporters are not part of them.
UniProt P25786: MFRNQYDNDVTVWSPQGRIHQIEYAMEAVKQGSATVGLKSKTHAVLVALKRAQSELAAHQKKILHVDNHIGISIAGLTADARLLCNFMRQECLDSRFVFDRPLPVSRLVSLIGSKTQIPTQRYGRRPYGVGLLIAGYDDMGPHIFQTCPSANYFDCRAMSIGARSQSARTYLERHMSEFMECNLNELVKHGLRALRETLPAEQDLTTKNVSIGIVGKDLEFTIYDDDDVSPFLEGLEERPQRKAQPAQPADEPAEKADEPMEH

In experiment [1] the target is proteasome subunit alpha type-1 (PSMA1) (human (endogenous in U87 and U251)) (UniProt P25786). In words: co-IP; lysates of U87 and U251 cells, control or overexpressing the lncRNA MDHDH; capture with anti-MDH2, anti-PSMA1 or mouse IgG and protein A/G magnetic beads; blot with anti-MDH2 or anti-PSMA1.
The target in another experiment is recombinant PSMA1 (UniProt P25786). In words: co-IP; cell-free system: commercial recombinant MDH2 and PSMA1 instead of cell lysate, with the lncRNA MDHDH; both purified.

B1: malate dehydrogenase 2 (MDH2) (enzyme, UniProt P40926 25-338)
chain: AKVAVLGASGGIGQPLSLLLKNSPLVSRLTLYDIAHTPGVAADLSHIETKAAVKGYLGPEQLPDCLKGCDVVVIPAGVPRKPGMTRDDLFNTNATIVATLTAACAQHCPEAMICVIANPVNSTIPITAEVFKKHGVYNPNKIFGVTTLDIVRANTFVAELKGLDPARVNVPVIGGHAGKTIIPLISQCTPKVDFPQDQLTALTGRIQEAGTEVVKAKAGAGSATLSMAYAGARFVFSLVDAMNGKEGVVECSFVKSQETECTYFSTPLLLGKKGIEKNLGIGKVSSFEEKMISDAIPELKASIKKGEDFVKTLK
Turning to B1, the binding entry in experiment [1] is reported as “binds”.

B2: recombinant MDH2 (enzyme, UniProt P40926 25-338)
chain: B1 chain
Regarding B2, the binding entry with recombinant PSMA1 is reported as “binds”.

The record behind these values is PMC9758949.
